Experimental data reported in article doi:10.1101/2021.03.31.437874.

Protein sequences, listed by entry. Tags and fused reporters are not part of them.
UniProt P39687: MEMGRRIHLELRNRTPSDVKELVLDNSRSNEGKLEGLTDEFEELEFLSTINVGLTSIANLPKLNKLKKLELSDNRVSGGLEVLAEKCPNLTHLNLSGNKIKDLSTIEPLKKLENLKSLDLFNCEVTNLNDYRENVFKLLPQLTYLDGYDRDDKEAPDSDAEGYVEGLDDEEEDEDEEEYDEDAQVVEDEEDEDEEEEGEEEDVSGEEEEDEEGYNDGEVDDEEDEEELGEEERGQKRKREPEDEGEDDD
UniProt P18754: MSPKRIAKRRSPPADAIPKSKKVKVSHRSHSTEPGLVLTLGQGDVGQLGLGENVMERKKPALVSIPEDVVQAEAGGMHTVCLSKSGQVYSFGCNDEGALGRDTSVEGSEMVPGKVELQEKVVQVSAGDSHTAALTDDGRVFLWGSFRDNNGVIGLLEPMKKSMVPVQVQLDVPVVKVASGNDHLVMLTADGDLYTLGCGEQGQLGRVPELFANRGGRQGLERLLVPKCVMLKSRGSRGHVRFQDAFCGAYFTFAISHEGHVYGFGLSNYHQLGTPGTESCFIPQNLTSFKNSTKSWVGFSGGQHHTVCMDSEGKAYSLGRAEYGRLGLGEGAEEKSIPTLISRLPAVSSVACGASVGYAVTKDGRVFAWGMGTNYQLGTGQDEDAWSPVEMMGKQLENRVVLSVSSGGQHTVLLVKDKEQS

Target: T1, FLAG-Nup50 N-terminal fragment (aa 1-120 of the human sequence) (human) (UniProt Q9UKX7)
T1 sequence: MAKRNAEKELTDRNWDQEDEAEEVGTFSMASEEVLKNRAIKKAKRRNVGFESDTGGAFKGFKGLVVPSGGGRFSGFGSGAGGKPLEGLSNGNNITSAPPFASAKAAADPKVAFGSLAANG
Test: affinity purification with mass spectrometry

ANP32A, endogenous in HEK293T (from UniProt P39687 1-249)
binding: binds

RCC1, endogenous in HEK293T (from UniProt P18754 1-421) (enzyme)
binding: binds

Results are given in words; binding and its absence hold for the method and conditions named. Binding seen in cells or lysates may run through a third protein. Here binding means that the protein was enriched with, or labelled near, the bait; the list need not be complete. Where a sequence is shown, tags or fusion partners need not be part of it.
